For 5 molecules, IC50 results are on record in patent US20110262945A1 (published 2011).

Read-outs that look alike come from different tables or passages of the source.

In assay [1] the target is chymotrypsin. In words: chymotrypsin inhibition.
In assay [2] the target is chymotrypsin. In words: chymotrypsin inhibition. This is another data set of the same source.

B1: A (other)
chain: LAAVSVDCSEYPKPACTMEYRPLCGSDNKTYGNKCNFCNAVVESNGTLTLSHFGKC
modifications: Asn(Oligosaccharide) at residue 28 (asparagine-linked sugar chain of formula (1)); disulfide bonds formed on folding, positions not determined for this fraction
As for B1, the half-maximal inhibitory concentration (IC50) – broadly, the point on the concentration scale where inhibition reaches its midpoint – with chymotrypsin [1] was 5.9 nM.

B2: C (other)
chain: LAAVSVDCSEYPKPACTMEYRPLCGSDNKTYGNKCNFCNAVVESNGTLTLSHFGKC
modifications: Asn(Oligosaccharide) at residue 28 (asparagine-linked sugar chain of formula (1)); disulfide bonds formed on folding, positions not determined for this fraction
As for B2, the half-inhibitory concentration (IC50) with chymotrypsin [1] came to 10.9 nM.

B3: D (other)
chain: LAAVSVDCSEYPKPACTMEYRPLCGSDNKTYGNKCNFCNAVVESNGTLTLSHFGKC
modifications: Asn(Oligosaccharide) at residue 28 (asparagine-linked sugar chain of formula (1)); disulfide bonds formed on folding, positions not determined for this fraction
Regarding B3, in the assay with chymotrypsin [1], the IC50 amounted to 17.6 nM.

B4: B (other)
chain: LAAVSVDCSEYPKPACTMEYRPLCGSDNKTYGNKCNFCNAVVESNGTLTLSHFGKC
modifications: Asn(Oligosaccharide) at residue 28 (asparagine-linked sugar chain of formula (1)); three disulfide bonds at the same positions as naturally-occurring OMSVP3
Molecule B4 gave an IC50 with chymotrypsin [1] of 9.1 nM.

B5: F (other)
chain: LAAVSVDCSEYPKPACTMEYRPLCGSDNKTYGNKCNFCNAVVESNGTLTLSHFGKC
modifications: three disulfide bonds at the same positions as naturally-occurring OMSVP3
In the assay with chymotrypsin [2], B5 gave an IC50 of 7.2 nM.
